Results deposited as PubChem BioAssay AID1259308 (NCATS, 2017).
This is an unselected part of about 59,000 reagents. About 1,510 of all reagents (2.6%) count as active. 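Calls use total luciferase alone and ignore viability, so some active siRNAs may act by altering cell number.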 Not all columns of the deposit are shown.

- Screen: 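Genes whose loss raises luciferase production in HEK293 cells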 (primary screen)
- System: human HEK293 embryonic kidney cells stably expressing firefly luciferase (HEK-CMV-Luc2-Hygro)
- Knock-down reagent: single siRNA against human genes, 0.8 pmol siRNA per well
- Time to read-out: 72 h
- Detection: 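Luciferase light (ONE-Glo) measured on one replicate plate set and viability (CellTiter-Glo) on the other, scaled to a negative control siRNA, with robust z-scores and luciferase per cell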
- Scale: total luciferase, z-score: higher = more reporter protein produced
- Call rule: 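Active when the median/MAD z-score for overall luciferase is greater than 3; a gene was taken forward for validation with new siRNAs if at least two of its three siRNAs passed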
- Calls: active = raised luciferase; inactive = no rise

gene | PubChem SID | total luciferase, z-score | Outcome
HDAC5 (histone deacetylase 5) | SID160723930 | -0.558 | inactive
HDAC5 (histone deacetylase 5) | SID160723936 | 0.171 | inactive
HDAC5 (histone deacetylase 5) | SID160723941 | 0.722 | inactive
CCN6 (cellular communication network factor 6) | SID160720937 | -0.447 | inactive
CCN6 (cellular communication network factor 6) | SID160720938 | 1.1 | inactive
CCN6 (cellular communication network factor 6) | SID160720939 | 4.61 | active
PTP4A1 (protein tyrosine phosphatase 4A1) | SID160719361 | -0.0295 | inactive
PTP4A1 (protein tyrosine phosphatase 4A1) | SID160719362 | -0.866 | inactive
PTP4A1 (protein tyrosine phosphatase 4A1) | SID160719363 | -2.4 | inactive
ZNF793 (zinc finger protein 793) | SID160766599 | 0.189 | inactive
ZNF793 (zinc finger protein 793) | SID160766600 | -0.77 | inactive
ZNF793 (zinc finger protein 793) | SID160766601 | 0.934 | inactive
PPP1R17 (protein phosphatase 1 regulatory subunit 17) | SID160729320 | -0.33 | inactive
PPP1R17 (protein phosphatase 1 regulatory subunit 17) | SID160729321 | 0.336 | inactive
PPP1R17 (protein phosphatase 1 regulatory subunit 17) | SID160729322 | -0.0885 | inactive
LTBR (lymphotoxin beta receptor) | SID160776772 | -0.538 | inactive
LTBR (lymphotoxin beta receptor) | SID160776773 | -0.345 | inactive
LTBR (lymphotoxin beta receptor) | SID160776774 | -0.375 | inactive
SLC15A3 | SID160740528 | -0.584 | inactive
SLC15A3 | SID160740529 | 0.482 | inactive
SLC15A3 | SID160740530 | -2.94 | inactive
AMOTL2 (angiomotin like 2) | SID160740778 | -0.0482 | inactive
AMOTL2 (angiomotin like 2) | SID160740779 | -0.517 | inactive
AMOTL2 (angiomotin like 2) | SID160740781 | -0.219 | inactive
ASRGL1 (asparaginase and isoaspartyl peptidase 1) | SID160750117 | 2.48 | inactive
ASRGL1 (asparaginase and isoaspartyl peptidase 1) | SID160750118 | -0.28 | inactive
ASRGL1 (asparaginase and isoaspartyl peptidase 1) | SID160750119 | 1.45 | inactive
PARP1 (poly(ADP-ribose) polymerase 1) | SID160714796 | 0.958 | inactive
PARP1 (poly(ADP-ribose) polymerase 1) | SID160714807 | -1.53 | inactive
PARP1 (poly(ADP-ribose) polymerase 1) | SID160714818 | 0.777 | inactive
GNAO1 (G protein subunit alpha o1) | SID160730983 | -1.13 | inactive
GNAO1 (G protein subunit alpha o1) | SID160771972 | 2.34 | inactive
GNAO1 (G protein subunit alpha o1) | SID160771980 | -0.42 | inactive
DUT (deoxyuridine triphosphatase) | SID160757378 | 0.133 | inactive
DUT (deoxyuridine triphosphatase) | SID160757386 | 0.115 | inactive
DUT (deoxyuridine triphosphatase) | SID160757397 | -1.43 | inactive
PCP4L1 (Purkinje cell protein 4 like 1) | SID160771128 | -0.125 | inactive
PCP4L1 (Purkinje cell protein 4 like 1) | SID160771129 | 0.723 | inactive
PCP4L1 (Purkinje cell protein 4 like 1) | SID160771130 | 0.726 | inactive
MLXIPL (MLX interacting protein like) | SID160740008 | -1.34 | inactive
MLXIPL (MLX interacting protein like) | SID160740009 | -2.71 | inactive
MLXIPL (MLX interacting protein like) | SID160740010 | -1.22 | inactive
LIMD2 (LIM domain containing 2) | SID160750554 | 0.398 | inactive
LIMD2 (LIM domain containing 2) | SID160750555 | 0.313 | inactive
LIMD2 (LIM domain containing 2) | SID160750556 | 3.01 | active
KPNA6 (karyopherin subunit alpha 6) | SID160736722 | -0.647 | inactive
KPNA6 (karyopherin subunit alpha 6) | SID160736723 | 0.6 | inactive
KPNA6 (karyopherin subunit alpha 6) | SID160736724 | -1.67 | inactive
OR4F3 (olfactory receptor family 4 subfamily F member 3) | SID160738138 | -0.436 | inactive
OR4F3 (olfactory receptor family 4 subfamily F member 3) | SID160738139 | -0.245 | inactive
OR4F3 (olfactory receptor family 4 subfamily F member 3) | SID160738140 | 0.102 | inactive
LITATS1 | SID160734349 | -0.0305 | inactive
LITATS1 | SID160771796 | -1.33 | inactive
LITATS1 | SID160771797 | 1.15 | inactive
ACACA (acetyl-CoA carboxylase alpha) | SID160777297 | 0.182 | inactive
ACACA (acetyl-CoA carboxylase alpha) | SID160777308 | -0.453 | inactive
ACACA (acetyl-CoA carboxylase alpha) | SID160777319 | -0.242 | inactive

Reprinted from the entries so far (8 entries):
gene | PubChem SID | total luciferase, z-score | Outcome
LTBR (lymphotoxin beta receptor) | SID160776772 | -0.538 | inactive
LTBR (lymphotoxin beta receptor) | SID160776773 | -0.345 | inactive
LTBR (lymphotoxin beta receptor) | SID160776774 | -0.375 | inactive
SLC15A3 | SID160740528 | -0.584 | inactive
SLC15A3 | SID160740529 | 0.482 | inactive
SLC15A3 | SID160740530 | -2.94 | inactive
AMOTL2 (angiomotin like 2) | SID160740778 | -0.0482 | inactive
AMOTL2 (angiomotin like 2) | SID160740779 | -0.517 | inactive
